# Data as given in the supplement of paper PMC12823440, “Inhibitors supercharge kinase turnover through native proteolytic circuits” (Nature, 2025).
# The list shows a part of the results. The calls rarely recur for the same compound in another form.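 In K562 cells expressing nanoluciferase-fused kinases, luminescence was recorded at 4 h intervals between 2 and 18 h, normalized as percent of control with DMSO at 100% and a positive control at 0%. A significant (2 sigma) signal drop marks a time point as decreased. The authors' rule for a hit is not shown and takes in more than the number of time points.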
# Target: PRKCA (UniProt P17252)
# Experiment: kinase-Nluc reporter destabilization hit call (1 = scored as downregulated) (binary); higher = compound decreases kinase abundance
# Conditions: K562; 2-18 h
row,SMILES,kinase-Nluc reporter destabilization hit call
1,Cc1cccc(-c2[nH]c(C(C)(C)C)nc2-c2ccc3c(c2)OCO3)n1 (2.5 µM),inactive: 0
2,Cc1cccc(Cn2nc(C)c3c(NC(=O)c4csc5c(N)ncnc45)cccc32)n1 (10 µM),inactive: 0
3,CC[C@@H]1CN(C(=O)NCC(F)(F)F)C[C@@H]1c1cnc2cnc3[nH]ccc3n12 [Upadacitinib] (10 µM),inactive: 0
4,CNS(=O)(=O)C[C@H]1CC[C@H](N(C)c2[nH]cnc3nccc2-3)CC1 [Oclacitinib (maleate)] (10 µM),inactive: 0
5,COc1cc(-c2cnc(N)c(-c3ccc(NC(=O)c4cn(CC5CCOCC5)cc(-c5ccc(C)cn5)c4=O)cc3F)c2)ccc1OC[C@H]1COCCO1 [DS-1205b (free base)] (10 µM),inactive: 0
